# According to PubChem BioAssay AID1347426 (Functional Genomics Laboratory (NCATS/FGL), 2020):
# Among all 31,000 sequences or so, about 1,400 (4.5%) were called active.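 The calls were made as follows: active = median seed-adjusted z-score above 1 or below -1; inactive = the rest.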 This is one part of the list.
# Test: Novel Modifiers of Survival Motor Neuron (SMN) Protein: Gene Identification via Genome-wide siRNA Screen;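 also: luminescence tracks full-length SMN protein made from the SMN2 reporter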
# Settings: HEK293T SMN2-luciferase reporter, siRNA knockdown, 72 h; actives lie on both sides
# In short: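 Steps: spot 1 pmol siRNA, add Lipofectamine RNAiMax in serum-free DMEM, seed HEK293T SMN2–luciferase reporter cells; incubate 72 h at 37 °C; add ONE-Glo; normalize luminescence to control siRNA, log10, MAD. Candidates: |MAD| > 1.0.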
row,Sequence,median seed-adjusted z-score
1,GUUUCGUGGUUAAUAACCATT against DACH2,inactive: -0.00102
2,CAAUGAUUGACACCAAUGATT against MBNL1,inactive: 0.658
3,GCAUGCUACUAGCAUCUUUTT against GJA3,inactive: 0.833
4,GGUGUAUUAUUUCUCGAAATT against RPA1,inactive: -0.27
5,CCCUAUCAAUUUCUAUGGATT against MPP4,inactive: 0.13
6,CAGAAGUCGUAGUCAUGAATT against RBM39,active: -1.82
7,GGACUUAAAACAAUGGUAUTT against PDE3B,inactive: -0.0475
8,GCACUCUUGUCAGACUUAATT against PRDX3,inactive: -0.0659
9,GCGUCUUCUUCAUCGUGUATT against TPCN1,inactive: 0.139
10,CACUCCAAGCGGAGACAGATT against FOS,inactive: 0.343
11,AGGCCACGCCCUACAACUATT against NDUFA3,inactive: -0.062
12,GCAAGCUUCUUGGUACAUUTT against DPYD,inactive: -0.112
13,ACAAAGAACAUGAUAACAATT against ZNF100,inactive: -0.209
14,CAUUUCAGAUGUAAAGAAUTT against ZNF138,inactive: -0.0937
15,GAGAAAAAUUCCUUAUAUUTT against NTS,inactive: 0.518
16,GCCUGGAACCAAGUACAUATT against TNN,inactive: -0.122
17,GAGAGAACAUCAUCACCUATT against CDH24,inactive: 0.31
18,GUCUGAAUGUCGAAGAGAATT against G3BP1,inactive: -0.593
19,GAAGUUCACUUACCAAACATT against CNKSR3,inactive: 0
20,GAGCGGAUGUUGUCAUGAATT against TMPRSS11D,inactive: -0.0643
21,CAACUGUCCCGGAGACAAUTT against CTGF,inactive: -0.181
22,GGACGAGAAUGGGAAGAUUTT against ARD1A,active: -1.05

row,Sequence,median seed-adjusted z-score
1,GUGUAUUGUUUGGAAAGAATT against KLRF1,inactive: 0.00941
2,CACAUAAGCCUGAAAUCAATT against F2,inactive: 0.286
3,GUAUGGAUAUGGAUAUGGATT against RBM3,inactive: 0.0539
4,AGAACGGAGCUUCAAGUCATT against ZDHHC12,inactive: -0.0312
5,GGCUUAUAUCAGUAGCAAUTT against DICER1,inactive: 0.101
6,AGAUGCCGGUGCAAGUUCATT against FXYD1,inactive: 0.276
7,GGACUCUAAUUCCAAAGCUTT against DBX2,inactive: 0.244
8,GGCAAGCACUGACUAACAATT against CP,inactive: 0.188
9,CAAAUGGAGAGAUAUCAUATT against PCDHB15,inactive: 0.0154
10,CAAUGACCGUAACCCACAATT against TMEM123,inactive: 0.292
11,UGCUUAUCCUGGUAAAAUATT against CCRL2,inactive: 0.575
12,GCCUAUAGAGGAUCAGUUATT against PCMTD1,inactive: 0.0312
13,GCAGCUUCAUAACCGAAGATT against PARP1,inactive: -0.0913
14,CACCCAUCCUUAAUACGAUTT against HOXB13,inactive: -0.136
15,GGACCAUUCAGGAGGCUGATT against CHP,inactive: -0.35
16,GGUCCCAGCUUGAAGAGAATT against CSTB,active: 1.08
17,GGAGGACGAGAAUAGCUCATT against LRTM2,inactive: 0.465
18,GGAGAUACUUAGUAAUAGATT against SMARCA5,inactive: -0.0804
19,GUUGAUAUCUGGAACAUGATT against DTNB,inactive: -0.142
20,GGACCAUCGCUAACGACGATT against GUCA2B,inactive: -0.146
21,CCCUUACCAUGGACAUCUATT against TGM1,inactive: -0.286
22,CCAGCAAGUUUUAUGCGAATT against KPNB1,inactive: 0.165

row,Sequence,median seed-adjusted z-score
1,GGAAAUUAGCUGCAGCUGATT against PPP1R2,inactive: 0.208
2,GGCGAGAGCUACAAACUGATT against GUCA1B,inactive: 0
3,GGUCUCUUCUGGUCUCUGATT against BAAT,inactive: 0.641
4,GAACGAAUUGACAAACAAATT against IL6,inactive: -0.436
5,GAUAUUGACUGGAUAGACATT against MYO10,inactive: 0.8
6,GCUCACAAGUGGUUACCUUTT against COL21A1,inactive: 0.296
7,GGACUUCUUUCUAAUGUAATT against SMAD9,inactive: -0.492
8,CCUCCACAAUAAAGACUUATT against PDE7B,inactive: 0.0616
9,CGUGGAAGGUGAGUAAUAATT against ZBTB40,inactive: 0.187
10,GAGUGUAUGACGAACGAAATT against SMC3,inactive: 0.507
11,GGACUUGCUCAAUUCAAGATT against MGAT5,inactive: 0.16
12,GGAACAACGGUGGAGAUUUTT against ITGB5,inactive: -0.00882
13,GAACUUCCGUCGUAGAUCATT against ZNF234,inactive: 0.0667
14,GGCCUAGAACUCUAUCAAATT against USP28,inactive: 0.275
15,GGAAGUAGCUAGUCAACUATT against RASGRP3,inactive: 0.0202
16,GAAACUCAGUUUAUGAGCATT against SPON1,inactive: 0.248
17,CGAGCAGAAUGUCUCCAGATT against SFRS17A,inactive: -0.389
18,CGCUGCGUCUAAAAUCAAATT against LILRA3,inactive: -0.548
19,GUGUAUCUCCCGAACAUAATT against RHOBTB1,inactive: -0.605
20,GGAGUGGUUUAAUAAUUAUTT against GINS1,inactive: -0.224
21,GAGCAUGGGUCAAAGCGAATT against TRPM6,inactive: -0.0375
22,UGCACAAUUUUGUACGGAATT against ARAF,inactive: 0.535

# Shown with tabs: part of the list above
row	Sequence	median seed-adjusted z-score
3	GCAUGCUACUAGCAUCUUUTT against GJA3	inactive: 0.833
6	CAGAAGUCGUAGUCAUGAATT against RBM39	active: -1.82
7	GGACUUAAAACAAUGGUAUTT against PDE3B	inactive: -0.0475
17	GAGAGAACAUCAUCACCUATT against CDH24	inactive: 0.31
19	GAAGUUCACUUACCAAACATT against CNKSR3	inactive: 0
22	GGACGAGAAUGGGAAGAUUTT against ARD1A	active: -1.05
1	GUGUAUUGUUUGGAAAGAATT against KLRF1	inactive: 0.00941
2	CACAUAAGCCUGAAAUCAATT against F2	inactive: 0.286
5	GGCUUAUAUCAGUAGCAAUTT against DICER1	inactive: 0.101
9	CAAAUGGAGAGAUAUCAUATT against PCDHB15	inactive: 0.0154
15	GGACCAUUCAGGAGGCUGATT against CHP	inactive: -0.35
17	GGAGGACGAGAAUAGCUCATT against LRTM2	inactive: 0.465
19	GUUGAUAUCUGGAACAUGATT against DTNB	inactive: -0.142
21	CCCUUACCAUGGACAUCUATT against TGM1	inactive: -0.286
1	GGAAAUUAGCUGCAGCUGATT against PPP1R2	inactive: 0.208
2	GGCGAGAGCUACAAACUGATT against GUCA1B	inactive: 0
3	GGUCUCUUCUGGUCUCUGATT against BAAT	inactive: 0.641
5	GAUAUUGACUGGAUAGACATT against MYO10	inactive: 0.8
8	CCUCCACAAUAAAGACUUATT against PDE7B	inactive: 0.0616
9	CGUGGAAGGUGAGUAAUAATT against ZBTB40	inactive: 0.187
11	GGACUUGCUCAAUUCAAGATT against MGAT5	inactive: 0.16
18	CGCUGCGUCUAAAAUCAAATT against LILRA3	inactive: -0.548
19	GUGUAUCUCCCGAACAUAATT against RHOBTB1	inactive: -0.605
21	GAGCAUGGGUCAAAGCGAATT against TRPM6	inactive: -0.0375
22	UGCACAAUUUUGUACGGAATT against ARAF	inactive: 0.535

# Following part:

row,Sequence,median seed-adjusted z-score
1,CUGCAUCAGUAAAUGCUAATT against HRB,inactive: 0.921
2,GCCUGUGAAUGUACAGAAATT against VEGFC,inactive: -0.41
3,CGCAUUUUCUCCGCAAAAATT against HSFX1,inactive: 0.0575
4,CGAGUACAUUUUCUUCCGATT against KCTD8,inactive: 0.0212
5,GGCCUAACAGUAUUCCUGATT against CRB2,inactive: 0
6,GCACGAAUUUCAGCACCAATT against HOXD1,inactive: 0.144
7,GGUCAUCACUUGGACAACATT against CLASP2,inactive: 0.157
8,AGCCUGGAGUCGAAACUGATT against GPR56,inactive: -0.109
9,UAAGCUUCAUGAAUACAGATT against S100A11,inactive: 0.702
10,CCCAAAGACUAAAGAUUAUTT against ATP6V1E1,inactive: -0.312
11,CGCUGGUCAUCGGACAAUUTT against PSMC4,inactive: -0.361
12,GCUUCGUCAUGGUACCCUUTT against EDNRA,inactive: 0.133
13,GGUUAUACGAGGGACAAGUTT against PDXK,inactive: -0.247
14,GGAAAAGGAACGGAAUAAATT against MLN,inactive: -0.422
15,CGUUGGAUUUUAAGGAAUUTT against KCTD6,inactive: 0.124
16,GACUGAAAGUAGUCAAGCATT against SP100,inactive: -0.235
17,GUAUAGUCCUAGUAGCUAUTT against MYO5A,inactive: 0.00798
18,GGGUCAUACGAAUACCGAUTT against VIPR2,inactive: 0.706
19,GGACUACGGAGUUCGAGAATT against MGC29506,inactive: 0
20,GGUCAUUAUGAUAACUUAATT against ZNF443,inactive: 0.0544
21,CACUCUAUCUACUUGAUAATT against FUCA1,inactive: -0.94
22,GAAUUCAACUAUCGAGUAUTT against CD86,inactive: 0

row,Sequence,median seed-adjusted z-score
1,GGGCAGCUGUGGAUCGAAUTT against COQ7,inactive: 0.159
2,CGGCUCAACUUGACGAUAATT against SNX13,inactive: 0.253
3,GAACAAGCAGUACUAAUGATT against TCF12,inactive: -0.16
4,AAAGGUGCCUGUUACCGAUTT against DUSP21,inactive: -0.0724
5,GACAUUAUUUCAAUAUGGATT against EIF4E2,inactive: 0.0495
6,CUAUCACGGUCACUGAUUUTT against PCDHB6,inactive: 0
7,CCAACUCACUACUACAGCATT against ENPP2,inactive: -0.305
8,GUUUUACCGAGAGCAUGAATT against NME6,inactive: -0.304
9,CCCACUUUAUUAUGACCAATT against RXFP2,inactive: 0.511
10,GACGUAAACGUGUUCAAUATT against ANXA1,inactive: -0.114
11,AGGAGAAUUUUGACGUGAATT against APOD,inactive: -0.115
12,CCAUUCUGUUGUGAAGUAATT against INSL4,inactive: 0.399
13,GCUCAUAAAUGAGAAGCUATT against PCDHB16,inactive: -0.523
14,GAAUUCACCAUUCAAGUAATT against SCYL3,inactive: 0.665
15,GAAUCUGAGUGUUGCGUUATT against SLC17A5,inactive: -0.354
16,CACCCGCGCUCAUGAGAAATT against KLC2,inactive: 0.0706
17,CCACCGGAUUUGAGAGAUUTT against USP25,inactive: 0.0461
18,GGAUAAAGAUAUUACUCUUTT against KIF5B,inactive: 0.162
19,GACUGGGUGUAAAACCGAUTT against ANGEL1,inactive: -0.332
